# Data published in PubChem BioAssay AID493014 (National Center for Advancing Translational Sciences (NCATS), 2011).
# The campaign covered roughly 340,000 compounds. About 170 (0.05%) were called active. The inconclusive results got no clear call from the source; some entries with a clear call stand among them for comparison. The call rests on the fitted dose curve; in most records, active means well fitted inhibition curve with a large enough effect in the signal ratio, with a control signal flat (not every such curve was filed as active); inconclusive means small, poorly fitted or top-dose-only effect, or effect the other way, or a change in a side signal; inactive means flat fitted curve, though single readings scatter; the % refers to the signal ratio. Potencies of inconclusive entries are doubtful fits and often do not repeat.
# Assay: qHTS Assay to Find Inhibitors of Chronic Active B-Cell Receptor Signaling;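 on activity change, negative = inhibition: plate controls were basal doxycycline-induced cells for no effect and cells given 10 µM MG132 for full effect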
# Settings: ABC-DLBCL IkBa-CBG/CBR reporter, luminescence ratio (green luciferase fused to IkBa over red control in TMD8 lymphoma cells), 4 h; activity change, negative = inhibition: at 46.1 µM (top of the series)
# Summary of the method: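 Cell line TMD8 (human ABC DLBCL), stably expressing tet-inducible CBG68-IkBa fusion and CBR; IMDM/0.5% FBS; cpd up to 46 uM; dox induction, 4 h, 37C/5% CO2; dual luminescence; green/red ratio; MG132 control.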
# Potency means the concentration at half of the fitted maximal effect.
Structure (SMILES),"activity change, negative = inhibition",Potency
COc1ccc(C(=O)C2CCCN(Cc3nc4ccccc4nc3C)C2)cc1OC (configuration not stated),inconclusive: -10.8%,–
CCOc1ccc(Cc2nnc(SCC(=O)c3ccc(OC)cc3)o2)cc1,inconclusive: -0.422%,–
CNC(=O)c1ccsc1NC(=O)c1ccc(Cl)s1,–,"inconclusive: 16.4 µM [falling, single point]"
O=C(NCCc1ccc(Cl)cc1)C1CCN(S(=O)(=O)c2cccs2)CC1,–,"inconclusive: 18.4 µM [falling, partial curve, poor fit]"
Cn1c(N)c(C(=O)CSc2nn(-c3ccc(F)cc3)c(=S)s2)c(=O)n(C)c1=O,inactive,–
O=C(c1c(F)c(F)c(F)c(F)c1F)N1CCN(c2cccc(C(F)(F)F)c2)CC1,–,"inconclusive: 29.1 µM [falling, single point]"
COc1ccccc1OCc1nc(C#N)c(N2CCCC2)o1,inactive,–
O=c1cc(-c2ccccc2)n(S(=O)(=O)c2ccccc2)o1,inconclusive: -1.01%,–
COc1cc(/C=N\n2nnnc2N)ccc1OCc1ccc(F)cc1,inactive,–
CCN(C(=O)COC(=O)/C=C/c1cnc2ccccc2n1)c1ccccc1,inconclusive: 3.6%,–
CCOc1ccccc1NC(=O)C1CCCN(c2c(CC)c(C)nc3ncnn23)C1 (configuration not stated),inactive,–
O=C(Nc1ccc2ccccc2c1)c1ccc(NS(=O)(=O)c2ccc(Br)s2)cc1,–,"inconclusive: 20.6 µM [falling, single point]"
CC[C@H](C)Cc1cn([C@@H](CCCN=C(N)N)C(=O)NCCCCCCCCCCC(=O)N2CCNCC2)nn1,inconclusive: -3.12%,–
COc1ccc(NC(=S)NC2CCCCC2)cn1,–,"inconclusive: 35.5 µM [falling, single point]"
Cc1ccccc1OCCC(=O)NNC(=O)COc1cccc(F)c1,inconclusive: 6.61%,–
O=C(N1CCC(n2nc(-c3ccccc3)oc2=O)CC1)C1(c2ccccc2)CC1,–,"inconclusive: 11.2 µM [falling, partial curve, poor fit]"
COC(CNC(=O)CN1CCN(Cc2ccccc2F)C1=O)OC,inactive,–
O=C1c2ccccc2C(=O)N1CCCc1cn(C[C@H]2CC[C@@H]([C@@H]3CC[C@H](Cn4cc(CCCN5C(=O)c6ccccc6C5=O)nn4)O3)O2)nn1,inconclusive: 5.62%,–
O=C1CN(C(=O)/C=C/c2ccccc2F)c2ccccc2N1,inconclusive: -28.4%,–
Cc1ccccc1N1C(=O)[C@@H]2Cc3ccccc3CN2C1=O,inconclusive: 3.7%,–
CC(/C=N/NC(=O)c1cc(-c2ccc3ccccc3c2)n[nH]1)=C\c1ccco1,–,"inconclusive: 5.8 µM [rising, partial curve]"

Structure (SMILES),"activity change, negative = inhibition",Potency
Cc1nonc1C1CCCN1Cc1cn[nH]c1-c1ccc(-c2ccccc2)cc1 (configuration not stated),inconclusive: 15.1%,–
COc1ccc(OC)c(N(CC(=O)NC2CC2)S(=O)(=O)c2ccc(C)cc2)c1,inconclusive: -1.15%,–
COc1ccc(/C=N/NC(=O)c2ccccc2[N+](=O)[O-])cc1CN1CCc2cc(OC)c(OC)cc2C1C (configuration not stated),–,"inconclusive: 11.2 µM [falling, partial curve]"
COc1cc(OC)c(-c2nn3c(-c4cccnc4)nnc3s2)cc1OC,inconclusive: 0.188%,–
CCOc1ccccc1C(=O)Nc1cc(C)ccc1NC(=O)c1ccco1,inconclusive: -0.621%,–
Cc1ccc([N+](=O)[O-])cc1S(=O)(=O)NCCc1cn2ccccc2n1,inconclusive: -32.4%,–
CCOC(=O)c1c(C)n(S(=O)(=O)c2ccc(C)cc2)c2ccc(O)c(C(=O)O)c12,inactive,–
CCN(CC)S(=O)(=O)c1cccc(NC(=O)COC(=O)CNC(=O)c2cccc(F)c2)c1,inconclusive: 2.24%,–
CCOc1cc(N2CCOCC2)c(OCC)cc1NC(=O)CN1C(=O)NC2(CCCCCCC2)C1=O,inconclusive: 5.38%,–
Cc1ccccc1NC(=O)COC(=O)C1(C)CC1(Cl)Cl (configuration not stated),–,"inconclusive: 3.98 µM [falling, full curve]"
O=C/C(=C\Nc1ccccn1)c1nc2ccccc2o1,inactive,–
CCn1cc(C2=NC(CCSC)CO2)c2ccccc21 (configuration not stated),inconclusive: 9.82%,–
CC(=C/c1ccco1)/C=N/N1CCN(c2ccccc2)CC1,inconclusive: 12.4%,–
C=CCNC(=S)NNC(=O)c1ccccc1,inconclusive: -7.65%,–
CCNC(=S)N1CCN=C1Nc1nc(C)cc(C)n1,inactive,–
CCCn1nc(NC(=O)c2cccs2)c2cc3cccc(C)c3nc21,inconclusive: 0.988%,–
CC1(C)Cc2cccc(C(=O)NCc3ccco3)c2O1,–,"inconclusive: 15.8 µM [falling, single point]"
Cc1ccccc1OCC(O)Cn1c(NCc2ccco2)nc2c1c(=O)[nH]c(=O)n2C (configuration not stated),inconclusive: 3.39%,–
N#Cc1c(NC(=O)CSc2ccccn2)oc(-c2ccccc2)c1-c1ccccc1,–,"inconclusive: 3.26 µM [rising, full curve, poor fit]"
Nc1ccc(-c2nc3c(ccc4ccccc43)[nH]2)cc1,inconclusive: -18.9%,–
CC(C)C(NC(=O)c1ccccc1)C(=O)OCC(=O)N1CCCC1 (configuration not stated),inconclusive: 7.66%,–

Structure (SMILES),"activity change, negative = inhibition",Potency
Cc1cc(C)n(C(=O)c2ccc(C)o2)n1,–,"inconclusive: 32.6 µM [falling, partial curve, poor fit]"
C=C(C)C(=O)Nc1ccc2c(c1)OCCOCCOCCO2,inactive,–
COC(=O)c1ccc(CSc2nc3ccccc3c(=O)n2-c2ccccc2)o1,inconclusive: 15.3%,–
O=C1/C(=C\c2ccc(Br)o2)SC(=Nc2ccccc2)N1c1ccccc1,inconclusive: 21.3%,–
c1ccc2c(c1)nc(N1CCN(C3CCCCC3)CC1)c1nnnn12,inconclusive: -6.94%,–
CCOc1ccc(NC(=O)C(C)O)c(NS(=O)(=O)c2ccc(CCNC(C)=O)cc2)c1 (configuration not stated),inconclusive: -3.64%,–
Cc1ccc(-n2nc(C)c(/C=N/n3c(C)n[nH]c3=S)c2Cl)cc1,inconclusive: 1.53%,–
CN(C)C(CNC(=O)c1ccc(Br)cc1)c1ccco1 (configuration not stated),inconclusive: 1.46%,–
Cc1ccc2[nH]cc(C(=O)CCl)c2c1,–,"inconclusive: 29.1 µM [falling, single point]"
CCOC(=O)C(Sc1n[nH]c(N)n1)c1ccccc1 (configuration not stated),inconclusive: 18.9%,–
CSCC[C@H](NC(=O)CCn1nnc2ccccc2c1=O)C(=O)O,inconclusive: -3.87%,–
O=C(NC(=S)N1CCN(C/C=C/c2ccccc2)CC1)c1ccc(F)cc1,–,"inconclusive: 10 µM [falling, partial curve]"
S=C(NCC1CCCCC1)Nc1cccnc1,–,"inconclusive: 6.51 µM [falling, partial curve, poor fit]"
Cc1c(Cl)sn(-c2ccc(Cl)cc2)c1=O,inconclusive: 3.8%,–
O=C1OC(c2ccccc2)=N/C1=C\N1CCCCC1,inconclusive: 7.16%,–
CS(=O)(=O)c1ccccc1-c1nc(-c2ccc([N+](=O)[O-])cc2)no1,inconclusive: 20.5%,–
COc1ccc(C(=O)NNC(=O)CCn2nnc(-c3ccc(Cl)cc3)n2)cc1OC,inconclusive: -19.9%,–
CN(C)CCC(=O)c1ccc2c(c1)OCO2,inconclusive: 7.47%,–
COc1ccc(C2C=C(C34CC5CC(CC(C5)C3)C4)NC(=S)N2)cc1 (configuration not stated),inactive,–
COC(=O)/C(=C\C(=O)c1ccccc1)Nc1cccc(C(F)(F)F)c1,inactive,–
COc1ccc(NC(=O)c2cc(-c3ccc4c(c3)OCO4)on2)cc1,inconclusive: -16.2%,–

# 6 compounds out of the list, arranged by number of heavy atoms, low to high.
Structure (SMILES),"activity change, negative = inhibition",Potency
Cc1ccc2[nH]cc(C(=O)CCl)c2c1,–,"inconclusive: 29.1 µM [falling, single point]"
Cc1cc(C)n(C(=O)c2ccc(C)o2)n1,–,"inconclusive: 32.6 µM [falling, partial curve, poor fit]"
O=C1OC(c2ccccc2)=N/C1=C\N1CCCCC1,inconclusive: 7.16%,–
C=C(C)C(=O)Nc1ccc2c(c1)OCCOCCOCCO2,inactive,–
COc1ccc(C2C=C(C34CC5CC(CC(C5)C3)C4)NC(=S)N2)cc1 (configuration not stated),inactive,–
COC(=O)c1ccc(CSc2nc3ccccc3c(=O)n2-c2ccccc2)o1,inconclusive: 15.3%,–

# (list continues)

Structure (SMILES),"activity change, negative = inhibition",Potency
CNC(=S)NNC(=O)c1ccccc1Cl,inactive,–
COc1ccc(CCN(Cc2cccs2)S(=O)(=O)c2ccc(C(=O)O)cc2)cc1OC,inactive,–
C=C(C)Cn1c(CCNC(=O)C(C)C)nc2ccccc21,inconclusive: 7.35%,–
COc1ccc(OC)c(NC(=O)C(CC(=O)O)NCc2ccco2)c1 (configuration not stated),inactive,–
Cc1cc(C(=O)COC(=O)c2ccc(O)cc2)c(C)n1CC(F)(F)F,inconclusive: -2.17%,–
CCOC(=O)Cc1csc(NC(NC(=O)OCC)(C(F)(F)F)C(F)(F)F)n1,inconclusive: 3.29%,–
NC(=O)C1CCN(C(=O)CNC(=O)c2ccc(Br)o2)CC1,inconclusive: 1.14%,–
COc1ccc(C(CNC(=O)c2oc3ccc(C)cc3c2C)N2CCCCC2)cc1 (configuration not stated),inactive,–
COc1cc(/C=N/Nc2ccc(S(N)(=O)=O)cc2[N+](=O)[O-])cc(OC)c1O,–,"inconclusive: 12.6 µM [falling, partial curve]"
O=C(c1cc2c(s1)-c1ccccc1OC2)N1CCCC1,–,"inconclusive: 29.1 µM [falling, single point]"
CO/N=C/c1ccc(Oc2ccc(C)cc2)nc1,inconclusive: 16.5%,–
Cc1ccc(C2(C)NC(=O)N(CC(=O)Nc3cc(S(=O)(=O)N(C)C)ccc3C)C2=O)cc1 (configuration not stated),inactive,–
Cc1ccc(-c2nnc(SCC(=O)NC3CCCC3)n2C)cc1,inactive,–
CCC1=NN(C(=O)c2ccccc2Br)C(O)(c2ccc(Br)cc2)C1 (configuration not stated),–,"inconclusive: 4.47 µM [falling, partial curve, poor fit]"
CC(=O)Oc1ccc(C2(C)CC(C)(C)Oc3cc(OC(C)=O)ccc32)c(OC(C)=O)c1 (configuration not stated),inconclusive: -1.85%,–
CC(=O)Nc1ccc(NC(=O)Cn2cnc3c(cnn3C(C)(C)C)c2=O)cc1,inactive,–
OCCN1CCN(C(=S)c2ccc(Cl)cc2)CC1,inconclusive: 2.9%,–
COc1cc(NC(=O)c2cccc([N+](=O)[O-])c2C)ccc1NC(=O)c1ccco1,inconclusive: -0.0522%,–
O/N=C\c1cccn1-c1ccc(Br)cc1,–,"inconclusive: 0.058 µM [rising, full curve]"
